Experimental data from the supplement of paper PMC8728848.
Some of the results follow.

Experiments:
Test in all cases: glycan array binding signal (z-score within array); higher = stronger binding
Settings in all cases: glycan notation: IUPAC condensed, linker removed
[1] = target: Gal(b1-3)[Neu5Ac(a2-6)]GalNAc
Method in brief: (§1)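 The Consortium for Functional Glycomics database supplied 3228 glycan arrays, of which those lacking an available protein sequence were dropped. The binding signal, a within-array Z-score, was averaged across arrays of the same protein sequence and across linkers. Negative scores can be read as non-binding.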

[2] = target: Gal(b1-3)[Neu5Ac(a2-6)]GlcNAc(b1-6)Gal(b1-4)Glc
Method in brief: as §1

[3] = target: Gal(b1-3)[Neu5Ac(b2-6)]GalNAc
Method in brief: as §1

[4] = target: Gal(b1-4)GalNAc(a1-3)[Fuc(a1-2)]Gal(b1-4)GlcNAc
Method in brief: as §1

[5] = target: Gal(b1-4)GalNAc(b1-3)[Fuc(a1-2)]Gal(b1-4)GlcNAc
Method in brief: as §1

Gal(b1-4)Glc = target: Gal(b1-4)Glc
Method in brief: as §1

Gal(b1-4)Glc6S = target: Gal(b1-4)Glc6S
Method in brief: as §1

Gal(b1-4)GlcNAc = target: Gal(b1-4)GlcNAc
Method in brief: as §1

[6] = target: Gal(b1-4)GlcNAc(a1-6)Gal(b1-4)GlcNAc
Method in brief: as §1

[7] = target: Gal(b1-4)GlcNAc(b1-2)Man(a1-3)Man(b1-4)GlcNAc(b1-4)GlcNAc
Method in brief: as §1

[8] = target: Gal(b1-4)GlcNAc(b1-2)Man(a1-3)[Gal(b1-4)GlcNAc(b1-2)Man(a1-6)]Man(b1-4)GlcNAc(b1-4)GlcNAc
Method in brief: as §1

[9] = target: Gal(b1-4)GlcNAc(b1-2)Man(a1-3)[Gal(b1-4)GlcNAc(b1-2)Man(a1-6)]Man(b1-4)GlcNAc(b1-4)[Fuc(a1-6)]GlcNAc
Method in brief: as §1

[10] = target: Gal(b1-4)GlcNAc(b1-2)Man(a1-3)[GlcNAc(b1-2)Man(a1-6)]Man(b1-4)GlcNAc(b1-4)GlcNAc
Method in brief: as §1

[11] = target: Gal(b1-4)GlcNAc(b1-2)Man(a1-3)[Man(a1-6)]Man(b1-4)GlcNAc(b1-4)GlcNAc
Method in brief: as §1

[12] = target: Gal(b1-4)GlcNAc(b1-2)Man(a1-6)Man(b1-4)GlcNAc(b1-4)GlcNAc
Method in brief: as §1

[13] = target: Gal(b1-4)GlcNAc(b1-2)Man(a1-6)[GlcNAc(b1-2)Man(a1-3)]Man(b1-4)GlcNAc(b1-4)GlcNAc
Method in brief: as §1

[14] = target: Gal(b1-4)GlcNAc(b1-2)Man(a1-6)[Man(a1-3)]Man(b1-4)GlcNAc(b1-4)GlcNAc
Method in brief: as §1

[15] = target: Gal(b1-4)GlcNAc(b1-2)[Gal(b1-4)GlcNAc(b1-4)]Man(a1-3)[Gal(b1-4)GlcNAc(b1-2)Man(a1-6)]Man(b1-4)GlcNAc(b1-4)GlcNAc
Method in brief: as §1

[16] = target: Gal(b1-4)GlcNAc(b1-2)[Gal(b1-4)GlcNAc(b1-4)]Man(a1-3)[Gal(b1-4)GlcNAc(b1-2)[Gal(b1-4)GlcNAc(b1-6)]Man(a1-6)]Man(b1-4)GlcNAc(b1-4)GlcNAc
Method in brief: as §1

[17] = target: Gal(b1-4)GlcNAc(b1-3)Gal(b1-3)GlcNAc
Method in brief: as §1

[18] = target: Gal(b1-4)GlcNAc(b1-3)Gal(b1-4)Glc
Method in brief: as §1

[19] = target: Gal(b1-4)GlcNAc(b1-3)Gal(b1-4)GlcNAc
Method in brief: as §1

[20] = target: Gal(b1-4)GlcNAc(b1-3)Gal(b1-4)GlcNAc(b1-3)Gal(b1-4)GlcNAc
Method in brief: as §1

[21] = target: Gal(b1-4)GlcNAc(b1-3)Gal(b1-4)[Fuc(a1-3)]GlcNAc(b1-3)Gal(b1-4)[Fuc(a1-3)]GlcNAc
Method in brief: as §1

[22] = target: Gal(b1-4)GlcNAc(b1-3)GalNAc
Method in brief: as §1

[23] = target: Gal(b1-4)GlcNAc(b1-3)[Gal(b1-4)GlcNAc(b1-6)]Gal(b1-4)GlcNAc
Method in brief: as §1

[24] = target: Gal(b1-4)GlcNAc(b1-3)[Gal(b1-4)GlcNAc(b1-6)]GalNAc
Method in brief: as §1

[25] = target: Gal(b1-4)GlcNAc(b1-3)[GlcNAc(b1-6)]Gal(b1-4)GlcNAc
Method in brief: as §1

[26] = target: Gal(b1-4)GlcNAc(b1-6)Gal(b1-4)GlcNAc
Method in brief: as §1

[27] = target: Gal(b1-4)GlcNAc(b1-6)GalNAc
Method in brief: as §1

[28] = target: Gal(b1-4)GlcNAc(b1-6)[Gal(b1-3)]GalNAc
Method in brief: as §1

Gal3S(b1-3)GalNAc = target: Gal3S(b1-3)GalNAc
Method in brief: as §1

Gal3S(b1-3)GlcNAc = target: Gal3S(b1-3)GlcNAc
Method in brief: as §1

[29] = target: Gal3S(b1-3)[Fuc(a1-4)]GlcNAc
Method in brief: as §1

Gal3S(b1-4)Glc = target: Gal3S(b1-4)Glc
Method in brief: as §1

Gal3S(b1-4)Glc6S = target: Gal3S(b1-4)Glc6S
Method in brief: as §1

Gal3S(b1-4)GlcNAc = target: Gal3S(b1-4)GlcNAc
Method in brief: as §1

Gal3S(b1-4)GlcNAc6S = target: Gal3S(b1-4)GlcNAc6S
Method in brief: as §1

B1: PEB1 (Campylobacter jejuni), Q0P9X8 (protein)
chain: MVFRKSLLKLAVFALGACVAFSNANAAEGKLESIKSKGQLIVGVKNDVPHYALLDQATGEIKGFEVDVAKLLAKSILGDDKKIKLVAVNAKTRGPLLDNGSVDAVIATFTITPERKRIYNFSEPYYQDAIGLLVLKEKKYKSLADMKGANIGVAQAATTKKAIGEAAKKIGIDVKFSEFPDYPSIKAALDAKRVDAFSVDKSILLGYVDDKSEILPDSFEPQSYGIVTKKDDPAFAKYVDDFVKEHKNEIDALAKKWGL
glycan array binding signal (z-score) [1]: -0.718
glycan array binding signal (z-score) [2]: -0.094
glycan array binding signal (z-score) [3]: -1.04
glycan array binding signal (z-score) [4]: 0.129
glycan array binding signal (z-score) [5]: 0.322
glycan array binding signal (z-score) (Gal(b1-4)Glc): 0.067
glycan array binding signal (z-score) (Gal(b1-4)Glc6S): 0.229
glycan array binding signal (z-score) (Gal(b1-4)GlcNAc): -0.159
glycan array binding signal (z-score) [6]: -0.863
glycan array binding signal (z-score) [7]: -0.553
glycan array binding signal (z-score) [8]: -0.123
glycan array binding signal (z-score) [9]: 0.818
glycan array binding signal (z-score) [10]: 0.41
glycan array binding signal (z-score) [11]: -0.385
glycan array binding signal (z-score) [12]: -0.028
glycan array binding signal (z-score) [13]: -0.568
glycan array binding signal (z-score) [14]: -1.07
glycan array binding signal (z-score) [15]: 0.759
glycan array binding signal (z-score) [16]: 0.649
glycan array binding signal (z-score) [17]: 0.014
glycan array binding signal (z-score) [18]: -0.613
glycan array binding signal (z-score) [19]: 0.03
glycan array binding signal (z-score) [20]: 0.018
glycan array binding signal (z-score) [21]: -0.999
glycan array binding signal (z-score) [22]: -0.743
glycan array binding signal (z-score) [23]: -0.728
glycan array binding signal (z-score) [24]: 0.006
glycan array binding signal (z-score) [25]: 0.192
glycan array binding signal (z-score) [26]: -1.39
glycan array binding signal (z-score) [27]: 0.425
glycan array binding signal (z-score) [28]: 0.298
glycan array binding signal (z-score) (Gal3S(b1-3)GalNAc): 0.473
glycan array binding signal (z-score) (Gal3S(b1-3)GlcNAc): 0.944
glycan array binding signal (z-score) [29]: -0.449
glycan array binding signal (z-score) (Gal3S(b1-4)Glc): -1.26
glycan array binding signal (z-score) (Gal3S(b1-4)Glc6S): 1.36
glycan array binding signal (z-score) (Gal3S(b1-4)GlcNAc): -0.108
glycan array binding signal (z-score) (Gal3S(b1-4)GlcNAc6S): -0.449
